In paper PMC12040169 (PLOS Biology, 2025):
The other results are listed elsewhere or left out.

System: T1, CTL2-GFP (C. trachomatis L2/434/Bu, GFP-expressing)
T1 construct: L2/434/Bu, GFP-expressing
Set-up: species or system HeLa; Intracellular C. trachomatis growth in HeLa cells, bulk GFP fluorescence relative to DMSO
Conditions: bulk GFP, single well; 28.5 h, 10 µM; inhibitor

Row | SMILES | % of control remaining
1 | Cc1ccc2c(c1)C1(CC(=O)N(C)C1=O)C(=O)N2CCCOc1ccccc1 (stereo not drawn) [CBK075496] | 133.566%
2 | CCn1nc(C2CCCC2)nc1-c1cnc2ccnn2c1C [CBK306626] | 111.229%
3 | O=C(CNC(=O)C1CCCCC1)NNC(=O)c1ccccc1Br [CBK267828] | 141.84%
4 | COC(=O)c1c(NC(=O)CC2Sc3ccccc3NC2=O)sc(C)c1C (stereo not drawn) [CBK264429] | 100%
5 | O=C1COc2ccccc2C/C=C/CC2(CCN(C(=O)Cc3cccnc3)CC2)C(=O)NCCN1 [CBK292153] | 117.491%
6 | Cc1cc(C)cc(N(C(C)C(=O)Nc2ccccc2-c2ccccc2)S(C)(=O)=O)c1 (stereo not drawn) [CBK268770] | 100.662%
7 | COc1cccc(-c2ccc3c(c2)[nH]c(=O)n3C2CCN(C(=O)c3ccc(C)c(OC)c3)CC2)c1 [CBK153141] | 104.593%
8 | CC12CC(NC(=O)N1c1ccc(C(=O)O)cc1)c1ccccc1O2 (stereo not drawn) [CBK287226] | 122.497%
9 | O=C(CSc1nnc(-c2cccc(Br)c2)o1)Nc1cccc([N+](=O)[O-])c1 [CBK264212] | 96.7229%
10 | O=S(=O)(c1cccc(S(=O)(=O)N2CCOCC2)c1)c1ccc(Cl)c(S(=O)(=O)N2CCOCC2)c1 [CBK261260] | 94.1174%
11 | COc1ccc([C@@]2(O)CC[C@@H]3CN(C(=O)C4CCCC4)C[C@@H]32)cc1 [CBK285260] | 138.025%
12 | CC1CCC(C(=O)Nc2ccc(C(=O)O)cc2)CC1 (stereo not drawn) [CBK287234] | 112.985%
13 | Cc1cccc(Nc2nc(C)cc3n[nH]c(=O)n23)c1 [CBK288477] | 46.256%
14 | CSc1nc(NC(=O)c2cccs2)cc(N2CCNCC2)n1 [CBK050315T] | 130.83%
15 | COc1cccc2c1CCN=C2C[C@H]1CN(C(=O)C2CC2)CC[C@H]1CC(=O)O [CBK289164] | 102.673%
16 | Cc1nccn1CC1CCCN(Cc2nc3ccccc3n2C)C1 (stereo not drawn) [CBK281975] | 144.997%
17 | Cn1c(CN2CCN(S(C)(=O)=O)CC2)nc2cc([N+](=O)[O-])ccc21 [CBK268362] | 130.806%
18 | Cc1ccccc1Sc1cc(C(F)(F)F)ccn1 [CBK115233] | 143.852%
19 | Cc1cc(NC(=O)c2nn(-c3nc4ccccc4s3)c3ccccc23)no1 [CBK048489] | 132.507%
20 | CC(CNC(=O)C1CCCCC1C(=O)O)c1ccccc1 (stereo not drawn) [CBK268028] | 121.782%

Row | SMILES | % of control remaining
21 | O=C(NCCn1nc(-c2cccs2)ccc1=O)c1ccccc1F [CBK283835] | 108.324%
22 | O=C(CSc1nnc(-c2ccccc2)[nH]1)c1cccc([N+](=O)[O-])c1 [CBK263287] | 117.987%
23 | O=C(Nc1cccnc1)c1cc(S(=O)(=O)N2CCOCC2)ccc1Cl [CBK262099] | 109.453%
24 | CCCn1cc(NC(=O)NCc2cc3c(cc2OC)CCC3)nn1 [CBK306614] | 119.455%
25 | O=C(Oc1n[nH]c2ccccc12)c1ccc(Cl)cc1 [CBK009976] | 109.57%
26 | Cc1nccn1C(C(=O)NCC1(C)COC1)c1ccccc1 (stereo not drawn) [CBK281743] | 158.538%
27 | C[S+]([O-])c1nc2ccccc2s1 (stereo not drawn) [CBK028233] | 116.031%
28 | Cc1c(C(C)NCC2CCN(C)CC2)cnn1-c1ccc(C#N)cc1 (stereo not drawn) [CBK304058] | 113.564%
29 | CCc1ccc(CNC2CCN(Cc3cscn3)CC2)o1 [CBK305104] | 125.199%
30 | O=C(O)COc1ccc(Br)cc1/C=C1\N=C(SCc2ccccc2)SC1=O [CBK265725] | 124.967%
31 | Clc1ccc(-c2ccc(/C=N/c3ccc4oc(-c5ccccc5)nc4c3)o2)cc1 [CBK261969] | 87.0897%
32 | CCOC(=O)CC1C(=O)NCCN1C/C=C\c1ccccc1OC (stereo not drawn) [CBK269791] | 100.133%
33 | Cc1ccccc1C(=O)NC1(C(F)(F)F)C(=O)Nc2c1c(=O)[nH]c(=O)n2CCc1ccccc1 (stereo not drawn) [CBK267483] | 142.201%
34 | CCC1CCCCN1C(=O)c1ccc(C)c(Br)c1 (stereo not drawn) [CBK081559] | 84.3519%
35 | Cc1ncccc1COC(=O)N1CCSCC1 [CBK200156] | 94.5883%
36 | Clc1ccc(Nc2nc(-c3ccoc3)cn3ccnc23)cc1 [CBK066497] | 130.383%
37 | CC1CCN(CC(CS(=O)(=O)c2ccc([N+](=O)[O-])cc2)N2CCC(C)CC2)CC1 (stereo not drawn) [CBK267506] | 136.334%
38 | COc1ccc(/N=C2\NC(=O)/C(=C\C=C\c3ccccc3)S2)cc1 [CBK263417] | 126.343%
39 | CN1CCN(c2ccc(-c3cncc(NC4CCOCC4)n3)cn2)CC1 [CBK037229] | 205.033%
